## Library screen at single concentrations

Sequences of proteins named here, by UniProt entry; tags and fusion partners are left off. Residues count along the entry.
UniProt Q4DA54, 1-478: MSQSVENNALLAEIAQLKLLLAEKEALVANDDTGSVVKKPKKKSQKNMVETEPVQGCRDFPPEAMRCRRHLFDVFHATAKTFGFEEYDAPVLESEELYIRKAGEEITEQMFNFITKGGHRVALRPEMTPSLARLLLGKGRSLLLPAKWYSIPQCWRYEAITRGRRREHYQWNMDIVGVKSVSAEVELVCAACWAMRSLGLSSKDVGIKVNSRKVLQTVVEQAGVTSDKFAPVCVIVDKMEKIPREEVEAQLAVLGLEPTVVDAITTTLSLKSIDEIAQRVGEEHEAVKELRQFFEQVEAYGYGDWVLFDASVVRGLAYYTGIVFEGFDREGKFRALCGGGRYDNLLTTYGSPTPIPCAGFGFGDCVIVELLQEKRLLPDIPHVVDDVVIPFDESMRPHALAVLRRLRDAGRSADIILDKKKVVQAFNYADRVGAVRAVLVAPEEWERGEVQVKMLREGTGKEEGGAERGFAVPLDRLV

Data taken from ChEMBL document CHEMBL3988442, “University of Dundee, Small-Polar-MMV Screening Library” (2021).

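Enzyme assay of histidyl-tRNA synthetase; the read-out is not stated. Target: Histidine-tRNA ligase, Trypanosoma cruzi CL Brener (UniProt Q4DA54). Compounds at 30 µM. Direction is inferred from retests: higher values go with stronger inhibition. Of about 69,000 compounds tested this way, about 31 (0.045%) reached 50% or more in at least one test.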

Each number is a percent effect as filed. How 0% and 100% were set is not recorded. Most values in the screen are low, and negative values occur. The compounds are a random part of those screened.

For COCC1c2c(cnn2CC2CC2)CCN1Cc1nccs1 (stereo not drawn) the result was 7.027%. Result for c1cncc(C2COC3(CCN(Cc4cccs4)CC3)C2)c1 (stereo not drawn) was 5.607%. With O=C(C1CCOc2ccccc21)N1CCOc2cccc(F)c21 (stereo not drawn) the screen gave 2.105%. For CCN(CC)CCN1CC[C@H]2OCC[C@@]2(C(=O)N2CCOCC2)C1 the result was -2.439%.

Cc1ccc(-c2cc(N)c(=O)n(C(C)C(=O)NCC3CCCCC3)n2)s1 (stereo not drawn) gave 5.993%. Result for CNc1cccc(C2CCCN(Cc3ncc[nH]3)C2)n1 (stereo not drawn) was 9.886%. Cc1noc(C2CCN(C(=O)c3ccc(C(F)(F)F)nc3)CC2)n1 read 5.294%. CCN1CC(C(=O)NCCCc2nc(C)c(C)s2)CC1=O (stereo not drawn) gave 4.902%.

COCCN1CCC12CCN(C(=O)c1ccc3[nH]ccc3c1)C2 (stereo not drawn) read 14.29%. Cc1ccccc1[C@@H]1CN(Cc2ccc(C(F)(F)F)nc2)C[C@H]1C(=O)O read 4.762%. O=C(c1ccoc1)N1CCc2c(COCC3CC3)cncc2C1 read 5.911%. With CCOc1ccc(NC(=O)N2CCOC(C(N)=O)C2)cc1C (stereo not drawn) the screen gave 2.01%.

Cn1cnc(S(=O)(=O)NCCC(O)c2ccc3c(c2)OCO3)c1 (stereo not drawn) gave 0%. Result for Cc1cnn(CCC(=O)NS(=O)(=O)N2CCc3ccccc32)c1 was 10.34%. Result for CCC(=O)N1CCCCC1c1nc(CN(C)C(C)=O)cc(N(C)C)n1 (stereo not drawn) was 3.714%. For Cc1cc(-c2cnc(NC3CCCC3)nc2-c2ccc(C)o2)on1 the result was 5.319%.

Cc1cnc(Nc2cccc(C3CCCN3C(=O)CO)n2)s1 (stereo not drawn) read 5.323%. With Cc1cc(CN2CC[C@H]3C(=O)N(c4ccsc4)CCO[C@H]3C2)no1 the screen gave 10.2%. For Cc1cc2c(=O)n3c(nc2s1)CCN(Cc1ccncc1)CC3 the result was 2.703%. O=C(NCC1CC1)[C@@H]1CCO[C@@H]2CCN(c3ncccn3)C[C@@H]21 read 3.483%.

Result for CC(C)C(=O)Nc1ccc(Sc2nncn2C)c(Cl)c1 was 4.124%. O=C(NCCc1coc(-c2ccc(F)cc2)n1)NC1CCC(O)CC1 (stereo not drawn) gave -1.132%. With COC(C)(C)C(=O)N[C@H]1CN(c2ncccc2C(N)=O)C[C@@H]1C(C)C the screen gave 5.419%. O=C(C1CCCN(c2nc3ccccc3cc2CO)C1)N1CCCC1 (stereo not drawn) gave 10.3%.

For COc1cccc(-c2nc(C)c(C(=O)N[C@@H](CCSC)C(=O)O)s2)c1 the result was 4.094%. For Cn1cc(C2SCC(=O)Nc3c2cnn3C(C)(C)C)cn1 (stereo not drawn) the result was 4.95%. For N#Cc1ccc(CN2C[C@@H](F)[C@@H](OCc3nc4cnccc4[nH]3)C2)cc1 the result was 4.478%. Result for CNC(=O)c1n[nH]c2c1C(c1cccc3[nH]ccc13)CC(=O)N2 (stereo not drawn) was 2.809%.

For CCN(Cc1nc(COC)no1)C[C@]1(O)CCCN2CCCC[C@@H]21 the result was 0.9662%. Result for COc1ccc(Cl)c(NCC(=O)NCC(=O)N2CCCC2)c1 was 11.88%. CNC(=O)Cc1ccc(NC(=O)NCC(C)c2ncc(C)s2)cc1 (stereo not drawn) read 2.381%. With C=C(C)COc1ccc(C(=O)NCCn2c(C)cc(C)nc2=O)cc1 the screen gave 5.102%.

CCc1ncc(C(=O)N2CCC(O)(CN3CCOCC3)C(C)(C)C2)cn1 (stereo not drawn) read 7.216%. O=C(c1ccsc1)N1CC(C(=O)N2CCOCC2)C2(CCOCC2)C1 (stereo not drawn) read 1.087%. COCCn1cnnc1Cn1ccnc1-c1ccsc1 gave 6.341%. For CN(Cc1cnc(C(C)(C)C)nc1)Cc1nc2ccc(F)cc2[nH]1 the result was 12.12%.

COC[C@H]1CC[C@H]2[C@H](CCN2C(=O)c2ccncc2F)O1 read 5.607%. O=S(=O)(NC1CCCCC12OCCO2)c1ccc2c(c1)OCCO2 (stereo not drawn) gave 6.736%. For CC(C)(C)OC(=O)N1CC(=O)N(CCc2ccccc2)CC(O)C1 (stereo not drawn) the result was 0%. Cc1ccc(CNCC2Cn3nncc3CO2)o1 (stereo not drawn) gave 6.63%.

O=C1NCCN(Cc2ccoc2)C1CC(=O)N1CCc2sccc2C1 (stereo not drawn) read 8.163%. Cc1cc(N2CCCN(C(=O)Cc3cc(F)cc(F)c3)CC2)ccn1 gave 0.9804%. With CCN(C(=O)c1ccc(-n2ncc(C#N)c2N)cc1)C1CCCC1 the screen gave 0.3802%. CC(C)c1nc(CC(=O)Nc2cnccc2O)cs1 read -2.762%.

Result for COc1ccc(S(=O)(=O)NC(=O)c2cscn2)cc1C was 9.639%. For CC(C)NC(=O)c1nnn(-c2cccc(C(F)(F)F)c2)c1N the result was 0%. For Cn1cnnc1C1CCN(C(=O)c2cc(-c3ccccc3)on2)CC1 the result was 5.941%. Result for CC(NC(=O)Nc1cccnc1N1CCCC1)c1ccccn1 (stereo not drawn) was 0.9804%.

For CNC(=O)CCN1CCCC1c1ccccc1Br (stereo not drawn) the result was -1.19%.

6 of the entries, repeated:

compound,Percent Effect
CC(NC(=O)Nc1cccnc1N1CCCC1)c1ccccn1 (stereo not drawn),0.9804%
Cn1cnc(S(=O)(=O)NCCC(O)c2ccc3c(c2)OCO3)c1 (stereo not drawn),0%
CCN1CC(C(=O)NCCCc2nc(C)c(C)s2)CC1=O (stereo not drawn),4.902%
COCCN1CCC12CCN(C(=O)c1ccc3[nH]ccc3c1)C2 (stereo not drawn),14.29%
Cn1cnnc1C1CCN(C(=O)c2cc(-c3ccccc3)on2)CC1,5.941%
CC(C)C(=O)Nc1ccc(Sc2nncn2C)c(Cl)c1,4.124%